A word on the IC50: it is the concentration needed to halve the response being measured. A lower IC50 goes with inhibition by little substance.

From patent publication US9545447B2, “Polymer-drug systems” (THE TEXAS A&M UNIVERSITY SYSTEM, priority 2013, dated 2017) come the findings set out here.

This assay concerns A549 cells, a human lung carcinoma cell line. In words: Cell viability (WST-1), A549 cells. The format is cell-based. The note with it: Table 1, 72 h, PTX as free PTX. As to the method: Polymer paclitaxel and free paclitaxel were tested in KB cells, a human nasal pharyngeal cancer cell line and A549 cells, a human lung carcinoma cell line. KB and A549 cells (ATCC, Manassas, Va.) were maintained in monolayer cultures in folate free RPMI (Life Technologies, Carlsbad, Calif.) and F-12K media (Mediatech, Manassas, Va.) respectively, supplemented with 10% fetal bovine serum and penicillin/streptomycin antibiotics. For screening purposes 2,500 cells in 100 μL of complete cell culture media were plated in a 96 well plate (Corning, Lowell, Mass.) in triplicates and were then incubated for 24 h in a humidified CO2 cell culture incubator maintained at 37° C. Serial dilutions of polymer-paclitaxel conjugates and paclitaxel were prepared in PBS and added to cells in a volume of 10 μL. The cells were either incubated for a short period of 2 h or for longer continuous incubation of 72 h. After 2 h incubation, the media was replaced with 110 μL of fresh complete RPMI. Cell viability was assessed by using a colorimetric WST-1 cell proliferation kit (Roche, Indianapolis, Ind.) and following manufacturer's instructions. Cell viability was calculated as a percentage of the control cells treated with no drugs. […]
For orientation: Formazan colour is commonly taken as a measure of viable cells.

On to `CC(=O)O[C@H]1C(=O)[C@@]2(C)[C@H]([C@H](OC(=O)c3ccccc3)[C@]3(O)C[C@H](OC(=O)[C@H](O)[C@@H](NC(=O)c4ccccc4)c4ccccc4)C(C)=C1C3(C)C)[C@]1(OC(C)=O)CO[C@@H]1C[C@@H]2O` [PTX, paclitaxel], for which half-maximal inhibition (IC50) was put at 0.287 µM.
